The other results are listed elsewhere or left out. The data scatter; read single values as rough.
Assays:
[1] = compound: ClCC(=O)N[C@@H]1CCCc2ccccc12; assay: log2 mean competition ratio of IA-DTB cysteine labelling (DMSO/compound) (log2 ratio); higher = stronger cysteine engagement by compound; settings: treatment time: 4 h, cell line lysate: HEK293T
Method: (§1)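 IA-DTB competitive cysteine chemoproteomics in HEK293T RIPA lysate. Lysates were treated with compound 29 or 30 at 50 or 200 µM for 4 h, then IA-DTB (500 µM, 1 h), trypsin-digested, NeutrAvidin-enriched and analysed by diaPASEF. Competition ratio = intensity DMSO / intensity compound (n=4 treated, n=64 DMSO); binding: mean log2 CR ≥ 1 and p ≤ 0.05 plus QC filters. Target is the cysteine site.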

Protein sequences, listed by entry. Tags and fused reporters are not part of them. Lines headed by an entry give the natural chain unless they say otherwise; changes in a name come on top. Residues count along the entry.
UniProt O75794: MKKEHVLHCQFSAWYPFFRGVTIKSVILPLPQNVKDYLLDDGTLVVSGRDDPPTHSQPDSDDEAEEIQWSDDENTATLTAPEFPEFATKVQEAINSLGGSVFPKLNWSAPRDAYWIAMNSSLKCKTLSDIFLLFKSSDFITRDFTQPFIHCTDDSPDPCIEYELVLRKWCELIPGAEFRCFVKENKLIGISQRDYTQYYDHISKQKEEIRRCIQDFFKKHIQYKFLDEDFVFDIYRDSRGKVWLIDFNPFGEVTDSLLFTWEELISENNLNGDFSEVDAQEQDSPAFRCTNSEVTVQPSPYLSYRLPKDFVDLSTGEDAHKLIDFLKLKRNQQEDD
UniProt P50991, 97-122: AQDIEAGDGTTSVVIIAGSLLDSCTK
UniProt Q3V6T2, 219-241: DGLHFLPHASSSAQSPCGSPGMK
UniProt Q96SN8: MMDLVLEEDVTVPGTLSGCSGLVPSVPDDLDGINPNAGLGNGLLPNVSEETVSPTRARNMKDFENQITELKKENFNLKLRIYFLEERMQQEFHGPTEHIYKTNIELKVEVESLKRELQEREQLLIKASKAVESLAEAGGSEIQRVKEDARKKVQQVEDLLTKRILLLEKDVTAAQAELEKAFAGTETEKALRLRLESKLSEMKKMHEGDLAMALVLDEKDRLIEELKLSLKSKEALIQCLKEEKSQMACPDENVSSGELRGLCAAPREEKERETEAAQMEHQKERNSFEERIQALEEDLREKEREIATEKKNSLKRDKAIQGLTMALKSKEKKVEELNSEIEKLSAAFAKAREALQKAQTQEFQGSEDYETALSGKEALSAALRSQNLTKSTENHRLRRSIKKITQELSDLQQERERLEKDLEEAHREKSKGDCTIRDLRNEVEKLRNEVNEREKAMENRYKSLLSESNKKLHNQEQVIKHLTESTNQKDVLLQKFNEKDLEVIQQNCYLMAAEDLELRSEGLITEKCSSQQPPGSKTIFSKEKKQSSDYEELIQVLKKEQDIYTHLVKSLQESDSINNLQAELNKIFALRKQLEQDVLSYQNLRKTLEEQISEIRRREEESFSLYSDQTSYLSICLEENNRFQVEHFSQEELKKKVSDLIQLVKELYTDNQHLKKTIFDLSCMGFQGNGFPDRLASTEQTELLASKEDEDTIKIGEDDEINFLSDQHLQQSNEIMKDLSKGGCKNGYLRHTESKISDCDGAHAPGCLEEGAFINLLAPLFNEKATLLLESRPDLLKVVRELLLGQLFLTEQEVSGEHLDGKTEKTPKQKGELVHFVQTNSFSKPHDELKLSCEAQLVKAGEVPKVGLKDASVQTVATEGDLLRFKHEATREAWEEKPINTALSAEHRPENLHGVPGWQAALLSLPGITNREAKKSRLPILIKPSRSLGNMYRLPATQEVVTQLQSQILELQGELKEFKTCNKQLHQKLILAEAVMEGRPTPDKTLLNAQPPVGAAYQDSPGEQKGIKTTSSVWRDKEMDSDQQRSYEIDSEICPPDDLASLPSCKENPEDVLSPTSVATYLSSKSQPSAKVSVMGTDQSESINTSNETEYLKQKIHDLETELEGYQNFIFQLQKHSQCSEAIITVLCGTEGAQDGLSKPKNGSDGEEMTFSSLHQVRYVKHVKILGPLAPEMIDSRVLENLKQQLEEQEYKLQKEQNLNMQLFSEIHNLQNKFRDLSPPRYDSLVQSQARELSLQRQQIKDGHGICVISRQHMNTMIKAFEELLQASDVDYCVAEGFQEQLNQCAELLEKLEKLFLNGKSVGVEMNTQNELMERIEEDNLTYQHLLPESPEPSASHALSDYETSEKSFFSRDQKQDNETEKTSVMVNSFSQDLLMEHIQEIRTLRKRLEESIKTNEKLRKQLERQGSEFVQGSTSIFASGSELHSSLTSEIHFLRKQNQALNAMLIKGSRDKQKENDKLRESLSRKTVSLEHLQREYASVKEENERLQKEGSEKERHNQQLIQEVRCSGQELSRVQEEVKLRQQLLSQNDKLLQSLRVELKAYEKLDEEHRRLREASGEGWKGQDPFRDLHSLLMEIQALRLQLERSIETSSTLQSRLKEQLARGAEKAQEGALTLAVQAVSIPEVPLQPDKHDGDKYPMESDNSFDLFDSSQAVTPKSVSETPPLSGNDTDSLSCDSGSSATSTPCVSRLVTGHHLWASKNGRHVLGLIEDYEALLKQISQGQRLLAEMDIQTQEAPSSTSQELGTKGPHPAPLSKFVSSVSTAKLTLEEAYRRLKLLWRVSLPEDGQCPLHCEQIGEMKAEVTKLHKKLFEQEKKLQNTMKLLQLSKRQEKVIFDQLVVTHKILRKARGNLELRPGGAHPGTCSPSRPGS
UniProt Q8TEP8: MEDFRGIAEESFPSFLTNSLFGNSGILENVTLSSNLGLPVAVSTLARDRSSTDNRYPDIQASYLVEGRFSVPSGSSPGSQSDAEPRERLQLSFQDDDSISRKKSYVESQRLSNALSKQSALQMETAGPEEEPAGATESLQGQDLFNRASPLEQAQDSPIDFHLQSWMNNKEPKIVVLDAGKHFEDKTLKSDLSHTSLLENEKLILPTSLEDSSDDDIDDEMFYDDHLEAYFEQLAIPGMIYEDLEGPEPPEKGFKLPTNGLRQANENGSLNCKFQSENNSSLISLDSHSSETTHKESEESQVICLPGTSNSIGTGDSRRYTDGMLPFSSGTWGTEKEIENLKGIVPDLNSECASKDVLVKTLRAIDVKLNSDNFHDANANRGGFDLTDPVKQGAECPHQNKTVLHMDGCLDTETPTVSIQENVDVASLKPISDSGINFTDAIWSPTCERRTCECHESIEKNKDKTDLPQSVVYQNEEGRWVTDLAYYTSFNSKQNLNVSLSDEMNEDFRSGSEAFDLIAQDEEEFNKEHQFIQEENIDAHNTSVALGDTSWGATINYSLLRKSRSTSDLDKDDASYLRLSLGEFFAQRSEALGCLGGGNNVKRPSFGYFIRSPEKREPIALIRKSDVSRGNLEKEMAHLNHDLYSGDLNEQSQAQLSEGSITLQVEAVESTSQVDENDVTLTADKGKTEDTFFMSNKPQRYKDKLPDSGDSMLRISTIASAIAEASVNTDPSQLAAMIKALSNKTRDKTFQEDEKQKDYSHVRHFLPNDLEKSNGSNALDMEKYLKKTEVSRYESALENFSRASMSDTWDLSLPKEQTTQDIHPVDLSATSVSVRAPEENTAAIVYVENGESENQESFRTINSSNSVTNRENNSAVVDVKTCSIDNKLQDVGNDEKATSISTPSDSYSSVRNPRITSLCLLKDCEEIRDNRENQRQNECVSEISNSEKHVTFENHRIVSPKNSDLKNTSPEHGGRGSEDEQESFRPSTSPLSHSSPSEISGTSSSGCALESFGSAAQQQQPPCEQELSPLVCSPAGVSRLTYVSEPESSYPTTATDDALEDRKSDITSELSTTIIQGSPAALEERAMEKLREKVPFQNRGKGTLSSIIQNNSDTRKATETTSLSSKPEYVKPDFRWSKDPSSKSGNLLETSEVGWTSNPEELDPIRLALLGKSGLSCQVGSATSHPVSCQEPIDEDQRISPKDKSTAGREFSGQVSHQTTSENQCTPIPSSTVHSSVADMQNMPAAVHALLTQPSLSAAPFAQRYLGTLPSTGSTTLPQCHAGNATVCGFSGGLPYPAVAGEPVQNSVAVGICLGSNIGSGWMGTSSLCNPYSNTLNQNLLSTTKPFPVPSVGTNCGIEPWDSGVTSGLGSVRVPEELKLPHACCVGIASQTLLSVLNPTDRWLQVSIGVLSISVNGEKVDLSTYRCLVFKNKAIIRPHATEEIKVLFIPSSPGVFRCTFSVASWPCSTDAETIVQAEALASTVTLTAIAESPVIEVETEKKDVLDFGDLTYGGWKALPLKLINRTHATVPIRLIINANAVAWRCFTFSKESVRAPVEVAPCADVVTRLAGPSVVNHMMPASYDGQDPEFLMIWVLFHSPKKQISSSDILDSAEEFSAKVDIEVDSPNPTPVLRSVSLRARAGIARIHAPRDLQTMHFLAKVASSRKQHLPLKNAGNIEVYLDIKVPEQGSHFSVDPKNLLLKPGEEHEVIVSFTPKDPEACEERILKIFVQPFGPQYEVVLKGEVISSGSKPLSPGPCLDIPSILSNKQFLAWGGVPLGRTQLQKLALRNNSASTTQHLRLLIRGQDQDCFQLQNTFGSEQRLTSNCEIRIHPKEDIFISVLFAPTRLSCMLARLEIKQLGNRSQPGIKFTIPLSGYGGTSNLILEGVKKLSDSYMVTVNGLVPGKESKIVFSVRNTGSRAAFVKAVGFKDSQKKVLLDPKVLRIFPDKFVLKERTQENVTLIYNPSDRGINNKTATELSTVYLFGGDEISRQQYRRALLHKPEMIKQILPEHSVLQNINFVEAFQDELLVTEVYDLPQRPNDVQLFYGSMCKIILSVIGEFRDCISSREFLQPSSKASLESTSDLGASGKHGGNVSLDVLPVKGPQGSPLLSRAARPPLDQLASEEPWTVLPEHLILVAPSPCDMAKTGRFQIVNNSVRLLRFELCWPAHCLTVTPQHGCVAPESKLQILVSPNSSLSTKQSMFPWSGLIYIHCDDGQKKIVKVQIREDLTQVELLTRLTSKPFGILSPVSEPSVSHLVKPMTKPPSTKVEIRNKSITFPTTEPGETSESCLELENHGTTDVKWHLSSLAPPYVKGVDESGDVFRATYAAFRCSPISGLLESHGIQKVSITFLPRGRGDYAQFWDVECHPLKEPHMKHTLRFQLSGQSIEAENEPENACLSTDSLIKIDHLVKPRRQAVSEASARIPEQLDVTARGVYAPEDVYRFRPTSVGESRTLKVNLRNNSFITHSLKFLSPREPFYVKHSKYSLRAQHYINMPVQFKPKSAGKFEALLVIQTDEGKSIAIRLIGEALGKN
UniProt Q9H6F5: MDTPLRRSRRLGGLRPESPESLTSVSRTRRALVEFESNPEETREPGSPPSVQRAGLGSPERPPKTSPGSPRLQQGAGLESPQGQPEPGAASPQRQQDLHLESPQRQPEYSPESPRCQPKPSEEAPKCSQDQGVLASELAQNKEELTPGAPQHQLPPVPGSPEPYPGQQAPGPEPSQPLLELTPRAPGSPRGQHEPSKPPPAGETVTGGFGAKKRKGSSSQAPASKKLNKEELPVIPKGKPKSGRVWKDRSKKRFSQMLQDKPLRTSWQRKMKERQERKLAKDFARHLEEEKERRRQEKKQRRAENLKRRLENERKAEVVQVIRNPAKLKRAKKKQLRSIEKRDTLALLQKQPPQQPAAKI
UniProt P30307: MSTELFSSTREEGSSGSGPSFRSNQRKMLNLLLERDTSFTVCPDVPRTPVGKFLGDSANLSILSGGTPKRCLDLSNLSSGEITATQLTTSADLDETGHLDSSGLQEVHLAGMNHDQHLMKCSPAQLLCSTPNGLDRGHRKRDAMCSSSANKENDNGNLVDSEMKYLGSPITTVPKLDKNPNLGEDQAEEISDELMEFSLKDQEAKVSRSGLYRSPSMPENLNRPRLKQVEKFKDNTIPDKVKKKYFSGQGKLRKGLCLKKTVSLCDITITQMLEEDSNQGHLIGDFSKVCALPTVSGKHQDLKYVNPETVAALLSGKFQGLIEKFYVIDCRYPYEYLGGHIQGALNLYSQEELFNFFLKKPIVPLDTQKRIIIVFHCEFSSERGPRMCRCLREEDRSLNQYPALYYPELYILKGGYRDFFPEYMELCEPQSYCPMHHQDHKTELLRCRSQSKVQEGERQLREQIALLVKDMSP
UniProt Q5VT06, 2421-2442: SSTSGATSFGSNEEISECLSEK
UniProt P49427: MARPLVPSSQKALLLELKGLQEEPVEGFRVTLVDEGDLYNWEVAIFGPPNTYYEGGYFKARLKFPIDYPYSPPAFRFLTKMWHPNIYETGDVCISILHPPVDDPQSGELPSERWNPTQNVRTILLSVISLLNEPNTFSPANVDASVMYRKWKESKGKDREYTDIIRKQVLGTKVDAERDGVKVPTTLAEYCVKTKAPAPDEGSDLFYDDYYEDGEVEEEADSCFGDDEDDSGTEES
UniProt Q00534: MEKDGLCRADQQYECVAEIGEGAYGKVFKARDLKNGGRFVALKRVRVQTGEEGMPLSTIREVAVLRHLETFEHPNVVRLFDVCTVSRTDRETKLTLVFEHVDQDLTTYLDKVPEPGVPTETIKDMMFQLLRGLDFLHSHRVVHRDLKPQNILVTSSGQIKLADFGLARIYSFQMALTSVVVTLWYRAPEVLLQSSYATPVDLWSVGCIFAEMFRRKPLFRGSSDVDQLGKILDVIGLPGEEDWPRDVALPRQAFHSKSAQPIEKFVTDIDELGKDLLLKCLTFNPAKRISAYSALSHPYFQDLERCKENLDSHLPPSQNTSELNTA
UniProt Q96FF9, 194-214: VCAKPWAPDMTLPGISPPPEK
UniProt Q9NPF0: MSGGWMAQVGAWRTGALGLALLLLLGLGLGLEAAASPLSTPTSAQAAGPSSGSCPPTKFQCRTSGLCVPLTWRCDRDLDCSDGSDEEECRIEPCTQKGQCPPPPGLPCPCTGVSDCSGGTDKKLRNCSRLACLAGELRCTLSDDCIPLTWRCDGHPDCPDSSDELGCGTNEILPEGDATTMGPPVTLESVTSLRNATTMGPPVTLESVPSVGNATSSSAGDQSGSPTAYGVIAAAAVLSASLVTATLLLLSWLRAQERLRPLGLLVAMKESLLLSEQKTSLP

[2] = compound: ClCC(=O)N[C@H]1CCCc2ccccc12; assay: as above; settings: treatment time: 4 h, cell line lysate: HEK293T
Method: as §1

Row | Target | log2 mean competition ratio ([1]; 50 µM) | log2 mean competition ratio ([1]; 200 µM) | log2 mean competition ratio ([2]; 50 µM) | log2 mean competition ratio ([2]; 200 µM)
1 | CENPH C35 (UniProt Q9H3R5) | -0.115 | 0.0836 | -0.254 | -0.00422
2 | CDC123 C212 (UniProt O75794) | 0.0462 | -0.228 | -0.282 | -0.282
3 | CCM2 C170 (UniProt Q9BSQ5) | -0.336 | 0.0462 | -0.106 | -0.0178
4 | CCT4 C120 (UniProt P50991) | -0.286 | 0.0694 | -0.173 | -0.149
5 | CCDC102A C402 (UniProt Q96A19) | -0.279 | 0.226 | -0.254 | 0.412
6 | CCDC88A C235 (UniProt Q3V6T2) | 0.582 | 0.0664 | 1.01 | 0.209
7 | CDK17 C304 (UniProt Q00537) | 0.144 | -0.178 | 0.0156 | 0.0487
8 | CDC73 C145 (UniProt Q6P1J9) | -0.175 | -0.223 | 0.608 | 0.307
9 | CCDC97 C136 (UniProt Q96F63) | 0.415 | -0.0642 | -0.194 | -0.12
10 | CD70 C8 (UniProt P32970) | -0.0851 | 0.142 | -0.258 | -0.0494
11 | CBX8 C142 (UniProt Q9HC52) | -0.0678 | 0.0194 | 0.222 | 0.0931
12 | CDK8 C25 (UniProt P49336) | -0.252 | 0.127 | -0.217 | 0.161
13 | CENPF C503 (UniProt P49454) |  |  | -0.592 | 0.00772
14 | CCDC25 C150 (UniProt Q86WR0) |  |  | -0.141 | 0.331
15 | CEP295 C874 (UniProt Q9C0D2) |  |  | -0.0272 | -0.0108
16 | CDK5RAP2 C249 (UniProt Q96SN8) | 0.124 | 0.162 | 0.711 | -0.0282
17 | CEP250 C2348 (UniProt Q9BV73) | 0.0593 | -0.00918 | 0.296 | -0.196
18 | CEP192 C1562 (UniProt Q8TEP8) |  |  | 0.134 | -0.339
19 | CDK5RAP2 C1267 (UniProt Q96SN8) |  |  | -0.236 | 0.398
20 | CDK5RAP2 C528 (UniProt Q96SN8) |  |  | -0.101 | 0.000202
21 | CDC6 C417 (UniProt Q99741) | -0.128 | 0.287 | -0.0295 | 0.183
22 | CDKN2C C141 (UniProt P42773) |  |  | 0.0941 | 0.00794
23 | CEP162 C1235 (UniProt Q5TB80) |  |  | -0.111 | 0.039
24 | CDS1 C10 (UniProt Q92903) |  |  | -0.151 | -0.025
25 | CCDC86 C116 (UniProt Q9H6F5) | 0.23 | 0.0157 | 0.26 | -0.0807

As entered above:
CCDC88A C235 (UniProt Q3V6T2) – log2 mean competition ratio ([1]; 50 µM): 0.582
CEP295 C874 (UniProt Q9C0D2) – log2 mean competition ratio ([2]; 50 µM): -0.0272
CDC73 C145 (UniProt Q6P1J9) – log2 mean competition ratio ([2]; 50 µM): 0.608

Continuation:

Row | Target | log2 mean competition ratio ([1]; 50 µM) | log2 mean competition ratio ([1]; 200 µM) | log2 mean competition ratio ([2]; 50 µM) | log2 mean competition ratio ([2]; 200 µM)
26 | CHCHD3 C112 (UniProt Q9NX63) | -0.119 | 0.0435 | 0.165 | 0.106
27 | CCDC186 C145 (UniProt Q7Z3E2) |  | 0.328 | 0.594 | 0.229
28 | CDC25C C42 (UniProt P30307) | 0.047 | -0.0773 | 0.43 | 0.134
29 | CFL1 C139 | 0.499 | -0.19 | 0.394 | 0.124
30 | CCDC25 C83 (UniProt Q86WR0) |  |  | 0.227 | -0.094
31 | CDC16 C544 (UniProt Q13042) |  |  | 0.0735 | 0.271
32 | CEP350 C2956 (UniProt Q5VT06) |  |  | -0.0679 | 0.0447
33 | CHD4 C1827 | -0.116 | 0.101 | -0.487 | -0.128
34 | CENPE C256 (UniProt Q02224) |  |  | 0.11 | 0.163
35 | CCDC106 C184 |  |  | 0.0969 | 0.0901
36 | CEP350 C2438 (UniProt Q5VT06) |  |  | 0.265 | -0.385
37 | CDC34 C191 (UniProt P49427) |  |  | -0.11 | 0.123
38 | CDK6 C15 (UniProt Q00534) |  |  | 0.231 | 0.00662
39 | CDCA5 C195 (UniProt Q96FF9) |  |  | 0.493 | 0.284
40 | CHAF1A C207 (UniProt Q13111) |  |  | -0.0878 | 0.295
41 | CDC16 C133 (UniProt Q13042) | 0.229 | -0.17 | 0.102 | -0.158
42 | CHAF1A C190 (UniProt Q13111) |  | 0.258 | -0.524 | 0.209
43 | CEP164 C810 (UniProt Q9UPV0) | 0.0128 | -0.228 | -0.395 | 0.00626
44 | CDK5RAP3 C150 (UniProt Q96JB5) |  |  | -0.134 | -0.104
45 | CDCA2 C315 (UniProt Q69YH5) |  |  | -0.0373 | 0.201
46 | CCSER1 C230 |  |  | -0.014 | 0.187
47 | CEP95 C276 | -0.159 |  | 0.334 | 0.172
48 | CD320 C132 (UniProt Q9NPF0) | 0.171 | 0.0105 | 0.956 | 0.398
49 | CDC42BPB C784 (UniProt Q9Y5S2) |  |  | -0.0503 | -0.207

Reference: the supplement of paper PMC11732987, “Enantioselective OTUD7B fragment discovery through chemoproteomics screening and high-throughput optimisation” (Communications Chemistry, 2025)
